Experimental data published in PubChem BioAssay AID2417 (National Center for Advancing Translational Sciences (NCATS), 2010).
Out of some 140,000 compounds screened, about 4,300 (3.1%) were called active. The inconclusive results got no clear call from the source; some entries with a clear call stand among them for comparison.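 The calls were made as follows: active = readout at or below -70, meaning at least 70% loss of cells showing the perinucleolar compartment, a nuclear body marking cancer cells; inconclusive = readout between -30 and a set limit; inactive = the rest.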

Assay: High Content Assay for Compounds that inhibit the Assembly of the Perinucleolar Compartment;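 also: plate controls were DMSO wells for no effect and camptothecin positive control wells for full effect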
Conditions: PC3M PTB-GFP, PNC prevalence imaging, 16 h; at 10 µM; stronger effect = lower value
In short: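 Compounds are pinned in duplicate onto adhered PC3M cells stably expressing GFP-tagged PTB and incubated 16 h at 37 C. Cells are then fixed, nuclei stained with Hoechst, and PNC-positive cells counted.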

SMILES	activity change (PNC), negative = inhibition
O=C(CSc1nnc(-c2cccnc2)n1C1CCCCC1)NC1CCCCC1	inactive: 16.8%
Cn1c(=O)oc2cc(S(=O)(=O)N3CCOCC3)ccc21	inactive: -15.3%
Cc1n[nH]c(C)c1Sc1ccccc1N=Cc1cc(Cl)cc([N+](=O)[O-])c1O	inactive: -2.7%
O=C(Cn1cnc2sc(-c3ccccc3)cc2c1=O)NCc1ccccc1	inactive: 43.5%
S=c1[nH]nc(COc2ccccc2)n1/N=C/c1cccs1	inconclusive: -37.5%
C/C(Cn1nc([N+](=O)[O-])cc1C)=N\NC(=O)COc1ccc(Cl)cc1Cl	inconclusive: -46%
CC(=O)Nc1ccc(-n2cnnn2)cc1	inconclusive: -48.4%
O=C1CCC/C(=N/NC(=O)C2CCN(S(=O)(=O)c3cccs3)CC2)C1	inconclusive: -44.2%
Cc1noc(C)c1C(=O)N1CCCC1	inconclusive: -42%
O=c1[nH]c2ccc(S(=O)(=O)N3CCCCC3)cc2[nH]1	inconclusive: -46.3%
O=C(C1CCCN(S(=O)(=O)c2cccc3nonc23)C1)N1CCN(c2cccc(Cl)c2)CC1 (stereo unspecified)	inactive: 18%
COc1ccc(OC)c(NC(=O)C2=C(C)Nc3ncnn3C2c2cccs2)c1 (stereo unspecified)	inconclusive: -47.2%
c1ccc(CCc2nc(-c3ccccn3)no2)cc1	inconclusive: -36.1%
COc1ccc2cc(C3(C)NC(=O)N(CC(=O)Nc4c(C)n(C)n(-c5ccccc5)c4=O)C3=O)ccc2c1 (stereo unspecified)	inconclusive: -59.4%
COc1ccccc1N1CCN(C(c2ccc(C)cc2)c2nnnn2C(C)C)CC1 (stereo unspecified)	inconclusive: -53.1%
OC(c1cccs1)(c1cccs1)C1C[N+]2(CF)CCC1CC2 (stereo unspecified)	active: -98.2%
CCOC(=O)C1=C(C)N(c2ccc(C)cc2)C(=O)/C1=C\c1cccs1	inconclusive: -32.5%
O=C(NCCc1ccccc1)c1ccccc1NC(=O)C1CC=CCC1C(=O)O (stereo unspecified)	inconclusive: -47.7%
CCOc1cc(C(=O)Nc2cnccn2)cc(OCC)c1OCC	inconclusive: -32.2%
CCC1Oc2ccc(C)cc2N(CC(=O)NCCCN2CCN(Cc3ccccc3)CC2)C1=O (stereo unspecified)	inconclusive: -70%
Cn1nc(-c2ccccc2)c(CSc2ccccc2)c1Cl	inconclusive: -37.3%
Nc1nc(SCc2nc3scc(-c4ccccc4)c3c(=O)[nH]2)n[nH]1	inconclusive: -58.7%
CCOC(=O)c1[nH]c(C)c(/C(O)=C2\C(=O)C(=O)N(CCCn3ccnc3)C2c2ccncc2)c1C (stereo unspecified)	inconclusive: -38.7%

SMILES	activity change (PNC), negative = inhibition
COc1ccc(S(=O)(=O)Nc2cccc(C)n2)c2ccccc12	inconclusive: -66.8%
Cc1ccccc1NC(=S)NC(NC(=O)c1ccco1)C(Cl)(Cl)Cl (stereo unspecified)	active: -120%
CCc1noc(C)c1C(=O)N1CCOCC1	inconclusive: -39.6%
CCOC(=O)c1cccc(NC(=O)CSc2nnc(-c3ccoc3C)n2CC)c1	inconclusive: -48.5%
CCC(=O)Nc1nc(-c2ccccc2)ns1	inconclusive: -38.1%
Cc1ccc(C(=O)C2=C(O)C(=O)N(CCCn3ccnc3)C2c2ccc(OC(C)C)cc2)o1 (stereo unspecified)	inconclusive: -43.6%
CCOC(=O)c1c(NC(=O)C(Sc2ccccc2)c2ccccc2)sc(C(N)=O)c1C (stereo unspecified)	inactive: 40.3%
COc1ccc(NC(=O)OCC(C)C)cc1OC	inconclusive: -57.4%
O=C(c1ccc(-n2cnnn2)cc1)N1CCN(C(c2ccccc2)c2ccccc2)CC1	active: -100%
O=C(Cn1nc(C(F)(F)F)c2c1CCC2)Nc1ccccc1C(F)(F)F	active: -100%
O=c1[nH]cnc2cc(Cl)ccc12	inactive: -29.8%
O=C(CS(=O)c1ccc(C(F)(F)F)cc1[N+](=O)[O-])Oc1ccccc1 (stereo unspecified)	inconclusive: -30.4%
CCc1ccc2nc3n[nH]c(N)c3cc2c1	inactive: -7.6%
C/C(=N/NC(=O)c1sc(NS(=O)(=O)c2ccccc2)nc1C)c1ccccc1	inconclusive: -46.1%
CCCCCCCC[n+]1cccc(C(=O)N2c3c(nc(N)[nH]c3=O)NC(C)C2C)c1 (stereo unspecified)	inconclusive: -66.1%
CCOc1ncccc1C(=O)OCC(=O)N1CCN(S(=O)(=O)c2ccccc2)CC1	inconclusive: -55.6%
CCCCCCNS(=O)(=O)c1nc2nc(C)cc(C)n2n1	inactive: -14.5%
Cc1snc2sc(C(=O)c3ccc(Br)cc3)c(N)c12	inactive: 16.1%
NC(=O)C1CCN(C(=O)c2ccc(NC3=NC4CS(=O)(=O)CC4S3)cc2)CC1 (stereo unspecified)	inactive: 9.98%
Cc1ccc2c(c1)c(CC(=O)Nc1ccc(C)c(F)c1)c(C(=O)O)n2C	inconclusive: -72.8%
CCOC(=O)NC(=O)CSc1nnnn1-c1ccc(C)cc1	inconclusive: -52.1%
O=c1c2ccccc2c(-c2ccccc2)nn1Cc1c(Cl)cccc1Cl	inconclusive: -70.1%
Cc1ccc(-c2csc(NC(=O)CCNC(=O)c3ccccc3Cl)n2)cc1	inconclusive: -53.5%

Given with bars between the fields: entries from further up
SMILES | activity change (PNC), negative = inhibition
CCOC(=O)c1c(NC(=O)C(Sc2ccccc2)c2ccccc2)sc(C(N)=O)c1C (stereo unspecified) | inactive: 40.3%
COc1ccc(NC(=O)OCC(C)C)cc1OC | inconclusive: -57.4%
O=C(c1ccc(-n2cnnn2)cc1)N1CCN(C(c2ccccc2)c2ccccc2)CC1 | active: -100%
O=C(Cn1nc(C(F)(F)F)c2c1CCC2)Nc1ccccc1C(F)(F)F | active: -100%
